Reference: article doi:10.1101/376103

Chains of the proteins cited; added tags and fusions are not shown. Lines headed by an entry give the natural chain unless they say otherwise; changes in a name come on top.
UniProt P63330: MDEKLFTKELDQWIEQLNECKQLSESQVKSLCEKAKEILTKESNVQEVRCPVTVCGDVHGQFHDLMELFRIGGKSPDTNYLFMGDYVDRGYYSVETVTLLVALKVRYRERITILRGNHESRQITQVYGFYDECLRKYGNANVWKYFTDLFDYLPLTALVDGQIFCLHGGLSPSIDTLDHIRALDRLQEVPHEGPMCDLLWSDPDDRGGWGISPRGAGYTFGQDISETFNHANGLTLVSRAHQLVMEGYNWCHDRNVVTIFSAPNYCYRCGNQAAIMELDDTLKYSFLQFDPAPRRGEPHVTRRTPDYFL
UniProt Q04207: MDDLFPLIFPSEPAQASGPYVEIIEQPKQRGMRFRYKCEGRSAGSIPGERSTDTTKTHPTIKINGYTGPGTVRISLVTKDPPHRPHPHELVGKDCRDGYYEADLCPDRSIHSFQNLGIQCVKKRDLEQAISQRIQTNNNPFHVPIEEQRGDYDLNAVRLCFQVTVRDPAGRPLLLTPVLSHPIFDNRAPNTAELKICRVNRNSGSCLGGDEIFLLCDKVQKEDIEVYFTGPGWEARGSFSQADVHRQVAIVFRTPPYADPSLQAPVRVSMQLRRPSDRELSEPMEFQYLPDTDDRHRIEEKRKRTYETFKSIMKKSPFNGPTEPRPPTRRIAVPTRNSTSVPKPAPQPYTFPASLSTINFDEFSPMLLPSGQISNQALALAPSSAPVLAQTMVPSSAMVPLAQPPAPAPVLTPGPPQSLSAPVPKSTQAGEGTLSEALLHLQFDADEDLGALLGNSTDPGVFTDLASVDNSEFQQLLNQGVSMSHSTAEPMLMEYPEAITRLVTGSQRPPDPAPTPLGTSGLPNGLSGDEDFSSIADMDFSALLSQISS

Molecular target: endogenous PP2A (mouse (endogenous in MEFs, GMDCs, BMDMs)) (UniProt P63330)
Experiment: co-IP

endogenous p65 (from UniProt Q04207 1-549)
binding: binds

Results are given in words; binding and its absence hold for the method and conditions named. In cells and extracts the contact can be indirect. A result given as binding can be weak or reduced; the word gives no strength.
